Record: PubChem BioAssay AID1224830 (NIAID, 2016)

- Test: 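Host factors that control LPS-induced TNF expression in human macrophages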 (primary screen)
- Cell system: human THP-1 monocytic leukaemia cells, TNF dual-luciferase reporter clone, PMA-differentiated to macrophage-like cells
- Reagents: siRNA pool against human genes, 50 nM
- Duration: LPS for 4 h, given about 3 days after siRNA transfection
- Conditions: bacterial LPS (TLR4 ligand), 10 ng/ml
- Measured: 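TNF firefly reporter luminescence divided by renilla, normalised to the plate median, then turned into a robust z-score for each replicate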
- Direction: TNF reporter robust z-score: higher = stronger TNF reporter response to LPS
- Call rule: 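Each well counts as active if its z-score is over 2.8 or under -1.5; controls are left without a call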
This is an unselected part of about 18,000 deposited reagents. About 2,900 of them (16%) were called active. 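Calls are made per well; low scores hint the gene aids the LPS response, high scores that it dampens it.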 A number with no mark means an inactive call. Repeated entries: four replicate wells of each siRNA pool.

{"Target gene": "GPR26 (G protein-coupled receptor 26)", "TNF reporter robust z-score": 0.55}
{"Target gene": "GPR26 (G protein-coupled receptor 26)", "TNF reporter robust z-score": 0.29}
{"Target gene": "GPR26 (G protein-coupled receptor 26)", "TNF reporter robust z-score": 1.61}
{"Target gene": "GPR26 (G protein-coupled receptor 26)", "TNF reporter robust z-score": 0.66}
{"Target gene": "TIPE2 (TNF alpha induced protein 8 like 2)", "TNF reporter robust z-score": 0.04}
{"Target gene": "TIPE2 (TNF alpha induced protein 8 like 2)", "TNF reporter robust z-score": 0.36}
{"Target gene": "TIPE2 (TNF alpha induced protein 8 like 2)", "TNF reporter robust z-score": -0.25}
{"Target gene": "TIPE2 (TNF alpha induced protein 8 like 2)", "TNF reporter robust z-score": -0.04}
{"Target gene": "TRMT61A (tRNA methyltransferase 61A)", "TNF reporter robust z-score": -0.16}
{"Target gene": "TRMT61A (tRNA methyltransferase 61A)", "TNF reporter robust z-score": 0.07}
{"Target gene": "TRMT61A (tRNA methyltransferase 61A)", "TNF reporter robust z-score": -0.65}
{"Target gene": "TRMT61A (tRNA methyltransferase 61A)", "TNF reporter robust z-score": -0.33}
{"Target gene": "ZNF536 (zinc finger protein 536)", "TNF reporter robust z-score": -0.65}
{"Target gene": "ZNF536 (zinc finger protein 536)", "TNF reporter robust z-score": -0.72}
{"Target gene": "ZNF536 (zinc finger protein 536)", "TNF reporter robust z-score": -1.18}
{"Target gene": "ZNF536 (zinc finger protein 536)", "TNF reporter robust z-score": -1.19}
{"Target gene": "FABP7 (fatty acid binding protein 7)", "TNF reporter robust z-score": -0.93}
{"Target gene": "FABP7 (fatty acid binding protein 7)", "TNF reporter robust z-score": 0.59}
{"Target gene": "FABP7 (fatty acid binding protein 7)", "TNF reporter robust z-score": -0.6}
{"Target gene": "FABP7 (fatty acid binding protein 7)", "TNF reporter robust z-score": 0.43}
{"Target gene": "TYW5 (tRNA-yW synthesizing protein 5)", "TNF reporter robust z-score": 0.21}
{"Target gene": "TYW5 (tRNA-yW synthesizing protein 5)", "TNF reporter robust z-score": 0.87}
{"Target gene": "TYW5 (tRNA-yW synthesizing protein 5)", "TNF reporter robust z-score": 0.76}
{"Target gene": "TYW5 (tRNA-yW synthesizing protein 5)", "TNF reporter robust z-score": 1.49}
{"Target gene": "CRYZL1 (crystallin zeta like 1)", "TNF reporter robust z-score": -0.14}
{"Target gene": "CRYZL1 (crystallin zeta like 1)", "TNF reporter robust z-score": 1.06}
{"Target gene": "CRYZL1 (crystallin zeta like 1)", "TNF reporter robust z-score": 0.31}
{"Target gene": "CRYZL1 (crystallin zeta like 1)", "TNF reporter robust z-score": 0.75}
{"Target gene": "GAGE12I (G antigen 12I)", "TNF reporter robust z-score": 0.73}
{"Target gene": "GAGE12I (G antigen 12I)", "TNF reporter robust z-score": 2.09}
{"Target gene": "GAGE12I (G antigen 12I)", "TNF reporter robust z-score": 2}
{"Target gene": "GAGE12I (G antigen 12I)", "TNF reporter robust z-score": 1.06}

A portion of the results above, for reference:
{"Target gene": "TIPE2 (TNF alpha induced protein 8 like 2)", "TNF reporter robust z-score": 0.36}
{"Target gene": "TIPE2 (TNF alpha induced protein 8 like 2)", "TNF reporter robust z-score": -0.25}
{"Target gene": "TIPE2 (TNF alpha induced protein 8 like 2)", "TNF reporter robust z-score": -0.04}
{"Target gene": "TRMT61A (tRNA methyltransferase 61A)", "TNF reporter robust z-score": -0.16}
